# Source: PMC8384837
# Positions count from the first letter of the chain named. Some of the results follow.
# Experiments:
# Conditions in all cases: yeast three-hybrid, YBZ-1, SC-Leu-His + 0.5 mM 3-AT, 4 days
# [1] = target: T1, PUM1 PUF domain R4-AQS N971A + H972Q + Q975S (Homo sapiens) (UniProt Q14671)
# T1 sequence: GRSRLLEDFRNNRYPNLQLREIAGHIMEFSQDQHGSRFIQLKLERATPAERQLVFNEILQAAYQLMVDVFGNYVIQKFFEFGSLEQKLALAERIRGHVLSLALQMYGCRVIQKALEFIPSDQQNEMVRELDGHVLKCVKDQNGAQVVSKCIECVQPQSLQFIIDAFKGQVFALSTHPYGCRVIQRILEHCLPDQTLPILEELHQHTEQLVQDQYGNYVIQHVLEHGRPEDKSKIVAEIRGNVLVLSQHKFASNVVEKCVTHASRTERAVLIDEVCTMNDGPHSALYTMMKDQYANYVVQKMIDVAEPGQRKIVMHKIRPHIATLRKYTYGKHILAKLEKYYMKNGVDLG
# [2] = target: T2, PUM1 PUF domain R4-CPL N971C + H972P + Q975L (Homo sapiens) (UniProt Q14671)
# T2 sequence: T1 sequence with A144C, Q145P, S148L
# [3] = target: T3, PUM1 PUF domain R4-CRG N971C + H972R + Q975G (Homo sapiens) (UniProt Q14671)
# T3 sequence: T1 sequence with A144C, Q145R, S148G
# [4] = target: T4, PUM1 PUF domain R4-CRL N971C + H972R + Q975L (Homo sapiens) (UniProt Q14671)
# T4 sequence: T1 sequence with A144C, Q145R, S148L
# [5] = target: T5, PUM1 PUF domain R4-DHG N971D + Q975G (Homo sapiens) (UniProt Q14671)
# T5 sequence: T1 sequence with A144D, Q145H, S148G
# [6] = target: T6, PUM1 PUF domain R4-DRG N971D + H972R + Q975G (Homo sapiens) (UniProt Q14671)
# T6 sequence: T1 sequence with A144D, Q145R, S148G
# [7] = target: T7, PUM1 PUF domain R4-EPS N971E + H972P + Q975S (Homo sapiens) (UniProt Q14671)
# T7 sequence: T1 sequence with A144E, Q145P
# [8] = target: T8, PUM1 PUF domain R4-FNI N971F + H972N + Q975I (Homo sapiens) (UniProt Q14671)
# T8 sequence: T1 sequence with A144F, Q145N, S148I
# [9] = target: T9, PUM1 PUF domain R4-GPM N971G + H972P + Q975M (Homo sapiens) (UniProt Q14671)
# T9 sequence: T1 sequence with A144G, Q145P, S148M
# [10] = target: T10, PUM1 PUF domain R4-GPT N971G + H972P + Q975T (Homo sapiens) (UniProt Q14671)
# T10 sequence: T1 sequence with A144G, Q145P, S148T
# [11] = target: T11, PUM1 PUF domain R4-LRC N971L + H972R + Q975C (Homo sapiens) (UniProt Q14671)
# T11 sequence: T1 sequence with A144L, Q145R, S148C
# [12] = target: T12, PUM1 PUF domain R4-RHL N971R + Q975L (Homo sapiens) (UniProt Q14671)
# T12 sequence: T1 sequence with A144R, Q145H, S148L
# [13] = target: T13, PUM1 PUF domain R4-RMS N971R + H972M + Q975S (Homo sapiens) (UniProt Q14671)
# T13 sequence: T1 sequence with A144R, Q145M
# [14] = target: T14, PUM1 PUF domain R4-SPL N971S + H972P + Q975L (Homo sapiens) (UniProt Q14671)
# T14 sequence: T1 sequence with A144S, Q145P, S148L
# [15] = target: T15, PUM1 PUF domain R4-TRG N971T + H972R + Q975G (Homo sapiens) (UniProt Q14671)
# T15 sequence: T1 sequence with A144T, Q145R, S148G
# [16] = target: T16, PUM1 PUF domain R4-VGI N971V + H972G + Q975I (Homo sapiens) (UniProt Q14671)
# T16 sequence: T1 sequence with A144V, Q145G, S148I
# [17] = target: T17, PUM1 PUF domain R4-VRG N971V + H972R + Q975G (Homo sapiens) (UniProt Q14671)
# T17 sequence: T1 sequence with A144V, Q145R, S148G
# [18] = target: T18, PUM1 PUF domain R4-VSI N971V + H972S + Q975I (Homo sapiens) (UniProt Q14671)
# T18 sequence: T1 sequence with A144V, Q145S, S148I
# [19] = target: T19, PUM1 PUF domain R4-WFG N971W + H972F + Q975G (Homo sapiens) (UniProt Q14671)
# T19 sequence: T1 sequence with A144W, Q145F, S148G
# [20] = target: T20, PUM1 PUF domain R4-WST N971W + H972S + Q975T (Homo sapiens) (UniProt Q14671)
# T20 sequence: T1 sequence with A144W, Q145S, S148T
sequence,measurement,setting,value
GGCUAGAACUAGUGGAUCCCCCGGCGCCCGGCGGCUCGAGCCCGGGUAAGUGUACAUAGUCUGCAUGCCGCCGGGCGCCAUGCCUGCAGGUCGACUCUAGAAAACAUG,binding signal (log2 enrichment (interaction score)),[1],-1.89
same,binding signal (log2 enrichment (interaction score)),[2],-1.02
same,binding signal (log2 enrichment (interaction score)),[3],-1.25
same,binding signal (log2 enrichment (interaction score)),[4],-1.31
same,binding signal (log2 enrichment (interaction score)),[5],-2.99
same,binding signal (log2 enrichment (interaction score)),[6],-2.34
same,binding signal (log2 enrichment (interaction score)),[7],-2.06
same,binding signal (log2 enrichment (interaction score)),[8],-1.42
same,binding signal (log2 enrichment (interaction score)),[9],-1.38
same,binding signal (log2 enrichment (interaction score)),[10],-1.36
same,binding signal (log2 enrichment (interaction score)),[11],-2.85
same,binding signal (log2 enrichment (interaction score)),[12],-1.5
same,binding signal (log2 enrichment (interaction score)),[13],-1.18
same,binding signal (log2 enrichment (interaction score)),[14],-2.25
same,binding signal (log2 enrichment (interaction score)),[15],-1.14
same,binding signal (log2 enrichment (interaction score)),[16],-1.46
same,binding signal (log2 enrichment (interaction score)),[17],-1.54
same,binding signal (log2 enrichment (interaction score)),[18],-1.65
same,binding signal (log2 enrichment (interaction score)),[19],-0.96
same,binding signal (log2 enrichment (interaction score)),[20],-1

# Part of the list above, set out differently:
sequence	measurement	setting	value
GGCUAGAACUAGUGGAUCCCCCGGCGCCCGGCGGCUCGAGCCCGGGUAAGUGUACAUAGUCUGCAUGCCGCCGGGCGCCAUGCCUGCAGGUCGACUCUAGAAAACAUG	binding signal (log2 enrichment (interaction score))	[16]	-1.46
same	binding signal (log2 enrichment (interaction score))	[17]	-1.54
